Experimental data as given in article PMC4080450 (eLife, 2014).
Results are given in words; binding and its absence hold for the method and conditions named.

Chains of the proteins cited; added tags and fusions are not shown. Lines headed by an entry give the natural chain unless they say otherwise; changes in a name come on top.
UniProt Q8NG31: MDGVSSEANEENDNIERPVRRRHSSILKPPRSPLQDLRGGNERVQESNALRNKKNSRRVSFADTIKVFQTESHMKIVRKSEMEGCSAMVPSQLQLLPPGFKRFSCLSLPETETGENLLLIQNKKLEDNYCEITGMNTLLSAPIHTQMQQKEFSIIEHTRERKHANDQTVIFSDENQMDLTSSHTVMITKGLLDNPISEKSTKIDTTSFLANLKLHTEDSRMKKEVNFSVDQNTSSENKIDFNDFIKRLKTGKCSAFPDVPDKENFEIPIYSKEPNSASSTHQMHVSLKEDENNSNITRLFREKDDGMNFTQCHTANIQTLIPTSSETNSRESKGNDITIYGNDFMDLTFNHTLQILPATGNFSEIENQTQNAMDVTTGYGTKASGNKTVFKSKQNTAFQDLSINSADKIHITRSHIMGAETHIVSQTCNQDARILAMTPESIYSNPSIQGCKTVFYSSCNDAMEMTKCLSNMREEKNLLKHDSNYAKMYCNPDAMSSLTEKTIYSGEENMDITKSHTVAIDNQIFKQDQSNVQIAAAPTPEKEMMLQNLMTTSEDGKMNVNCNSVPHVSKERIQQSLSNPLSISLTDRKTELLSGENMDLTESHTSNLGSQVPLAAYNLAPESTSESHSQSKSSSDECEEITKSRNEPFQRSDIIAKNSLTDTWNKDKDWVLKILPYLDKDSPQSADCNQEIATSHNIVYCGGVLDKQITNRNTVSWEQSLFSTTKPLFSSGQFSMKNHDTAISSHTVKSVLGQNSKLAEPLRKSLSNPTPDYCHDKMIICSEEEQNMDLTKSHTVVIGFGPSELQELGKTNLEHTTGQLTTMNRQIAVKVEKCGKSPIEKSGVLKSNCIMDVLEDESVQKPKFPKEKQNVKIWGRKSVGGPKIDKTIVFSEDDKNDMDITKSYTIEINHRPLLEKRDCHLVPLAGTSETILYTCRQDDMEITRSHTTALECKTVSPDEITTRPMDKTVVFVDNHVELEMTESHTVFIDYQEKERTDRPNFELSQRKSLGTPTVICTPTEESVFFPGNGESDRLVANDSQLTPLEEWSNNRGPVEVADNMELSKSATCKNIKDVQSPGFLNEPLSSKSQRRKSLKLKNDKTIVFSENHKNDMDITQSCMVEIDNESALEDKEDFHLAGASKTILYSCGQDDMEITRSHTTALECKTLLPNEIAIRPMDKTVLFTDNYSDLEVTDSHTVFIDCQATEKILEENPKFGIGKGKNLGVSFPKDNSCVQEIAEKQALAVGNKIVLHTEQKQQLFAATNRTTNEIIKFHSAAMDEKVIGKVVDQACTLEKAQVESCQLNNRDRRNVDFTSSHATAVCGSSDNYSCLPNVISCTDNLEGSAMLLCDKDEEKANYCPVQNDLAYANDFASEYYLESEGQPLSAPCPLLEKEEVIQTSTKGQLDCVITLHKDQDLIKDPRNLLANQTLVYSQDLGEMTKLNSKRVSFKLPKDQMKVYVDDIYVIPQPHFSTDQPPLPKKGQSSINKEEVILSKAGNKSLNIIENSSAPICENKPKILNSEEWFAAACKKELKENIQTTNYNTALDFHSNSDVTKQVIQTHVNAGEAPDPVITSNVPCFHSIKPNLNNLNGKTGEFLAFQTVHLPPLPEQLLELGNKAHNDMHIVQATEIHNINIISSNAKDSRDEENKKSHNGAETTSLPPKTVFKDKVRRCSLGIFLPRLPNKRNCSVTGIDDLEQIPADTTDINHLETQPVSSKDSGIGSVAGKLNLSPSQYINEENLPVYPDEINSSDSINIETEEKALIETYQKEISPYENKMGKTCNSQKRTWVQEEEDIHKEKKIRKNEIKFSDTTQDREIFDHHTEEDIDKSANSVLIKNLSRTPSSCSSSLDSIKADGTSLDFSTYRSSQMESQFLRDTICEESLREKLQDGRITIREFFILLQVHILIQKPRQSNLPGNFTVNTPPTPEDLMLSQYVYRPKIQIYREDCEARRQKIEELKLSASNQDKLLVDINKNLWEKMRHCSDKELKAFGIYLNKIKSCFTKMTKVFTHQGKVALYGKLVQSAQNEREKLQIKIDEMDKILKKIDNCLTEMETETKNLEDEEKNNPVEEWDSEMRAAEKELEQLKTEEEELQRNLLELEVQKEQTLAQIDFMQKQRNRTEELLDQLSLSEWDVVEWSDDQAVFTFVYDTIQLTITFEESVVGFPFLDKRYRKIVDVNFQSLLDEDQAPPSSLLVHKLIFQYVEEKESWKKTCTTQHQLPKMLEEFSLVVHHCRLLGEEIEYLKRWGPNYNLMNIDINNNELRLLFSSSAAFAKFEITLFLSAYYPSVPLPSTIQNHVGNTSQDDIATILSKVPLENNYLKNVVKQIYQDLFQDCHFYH
UniProt Q9NSP4: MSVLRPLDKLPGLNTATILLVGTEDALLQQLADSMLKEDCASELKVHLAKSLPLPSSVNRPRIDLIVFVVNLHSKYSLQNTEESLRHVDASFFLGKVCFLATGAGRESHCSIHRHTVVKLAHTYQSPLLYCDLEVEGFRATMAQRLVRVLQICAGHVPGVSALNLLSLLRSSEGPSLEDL

Molecular target: Knl1^2000–2311 (UniProt Q8NG31)
Assay: SEC; analytical SEC co-elution (Superdex200 5/150 or Superose6 5/150), 4°C; proteins mixed in 50 µl, at least 2 hr on ice; SEC buffer with 150 mM NaCl; both purified

binding: no binding
Substance: CENP-M (from UniProt Q9NSP4 1-180)
